PubChem BioAssay AID1508588 – Peter MacCallum Cancer Centre, 2020

Purpose: 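Knock-downs boosting vemurafenib effects on melanoma cell growth or lactate release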 (primary screen)
System: human WM266.4 melanoma cells (BRAF V600 mutant)
Reagent: siRNA pool against human genes, 40 nM
Duration: 96 h from transfection to read-out
Conditions: vemurafenib 300 nM (about IC25), added 48 h after transfection, for 48 h; comparison arm got DMSO vehicle only
Detection: 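Cell gain (DAPI nuclei at end minus before drug, mean of two replicates) and medium lactate by absorbance per cell, both as ratio to non-targeting siRNA, also grouped into fold-change classes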
Reading the numbers: cell gain with vemurafenib: higher = more cell gain than with non-targeting siRNA; lactate per cell with vemurafenib: higher = more lactate made per cell
Call rule: 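a knock-down counts as enhancing when its fold-change classes with vehicle and with vemurafenib, taken together, show a stronger drug effect on cell gain or lactate per cell; exact class pairs not stated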
Meaning of the calls: active = enhances vemurafenib effect; inactive = no enhancement seen
The whole screen tested about 18,000 reagents; this is an unselected part. 790 of all reagents (4.4%) count as active. 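Calls rest on a combination of fold-change classes in drug and vehicle arms, not all shown here.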 Unmarked entries are inactive. A reagent listed more than once was tested more than once; the source does not tell the runs apart. Reagent sequences are not shown.

gene,cell gain with vemurafenib,lactate per cell with vemurafenib
ALKBH7,0.51,0.3
TAMM41,1,0.55
ALLC,0.64,0.42
TRNAU1AP,0.28,1.19
LDAF1,0.37,1.23
SRBD1,0.19,1.19
DTYMK,0.76,1.16
BGLAP,0.56,0.88
IL36G,0.52,1.5
ZNF12,1,0.68
PRR21,0.8,0.63
PAX1,0.55,0.84
TTYH2,0.51 (active),0.62
MED8,0.34,0.74
GPN1,0.33,1.88
SLFNL1,0.58,1
CGB3,0.55,1.04
LIN7C,1.07,1.27
GTF2IRD2B,0.71,0.82
POU6F2,0.52,1.46
NCOA5,0.8,1.7
OPN4,0.89,1.01
TRIM28,1.01,0.84
ASB12,0.99,0.66
LMO1,0.91,0.62
TAS2R19,0.75,0.44
SLC25A11,0.34,0.76
SHB,1.22,0.54
PDP2,0.5,0.36
DOT1L,0.68,1.09
GLIS1,0.73,0.69
AKR7A3,0.17,1.77
DSN1,0.41,0.72
ACSL1,0.59,1.75
HMGN2,0.17,1.87
SYT14P1,0.57,0.81
PGAM2,1.07,0.7
SLA,0.45,1.07
VWCE,0.89,1.06
PHLDA1,0.26,0.96
CPNE2,0.74,0.63
GOLGA8F,0.53,1.86
PLCXD2,0.21,1.94
FAM20A,0.4,1.45
PLA2G4A,0.03,1.46
ANKMY2,1,1.08
SMIM19,0.52,1
GDF2,0.05,2.78
LGR6,0.67 (active),0.44
LGR6,0.82 (active),0.78
RPL38,0,1.73
PSG8,0.56,1.03
SLC31A1,0.48,1.3
SUGP2,0.18,0.26
POLE2,0.26,1.66
HAS2,1.05,0.86
HAVCR2,0.42,1.04
GALNT11,0.22,1.85
ETS2,0.22,1.88
SLC8A2,0.47,1.34
CAMTA1,0.02,1.04
SLC25A19,1.35,0.56
SEPTIN6,0.03,1.42
ACTL6A,0.7,0.79
TIMM17B,0.71,0.89
IGDCC4,0.89,0.9
MUC15,0.63,1.36
EPHX3,0.15,1.22
HECW2,0.66,0.47
CLCNKA,0.9,1.02
OSR2,0.89,1.21
ENPEP,0.62,1.54
CNR1,0.84,1.27
SDHD,0.49,1.45
MLH1,0.43,1.12
KDR,0.6,0.73
SOCS1,0.26,1.44
GGN,0.63,1.17
MCM4,0.71,0.82
LIN52,0.22,0.83
ALS2CL,0.7,1.02
XIRP2,1.13,1.04
ARID5B,1.15,0.59
ZSCAN21,0.31,1.4
